Assay results reported in US6147189A, “Polypeptides that include conformation-constraining groups which flank a protein-protein interaction site” (Virginia Commonwealth University, priority 1997, dated 2000).
At least one peptide structure holds a part that was inferred or is arguable (an end, a ring closure or a residue). Where a SMILES comes first, the peptide text is derived from it.

System: platelet aggregation
Test: Inhibition of platelet aggregation (initiated by collagen or ADP), overall statements
Assay type: cell-based
Details: from dose-response relationships

**Q.** For `CC[C@H](C)[C@H](N)C(=O)N[C@@H](C)C(=O)N[C@@H](CCCNC(=N)N)C(=O)NCC(=O)N[C@@H](CC(=O)O)C(=O)N[C@@H](CCSC)C(=O)N[C@@H](CC(N)=O)C(=O)N[C@@H](C)C(=O)O` [Peptide P-1, Ile-Ala-Arg-Gly-Asp-Met-Asn-Ala] (H-IARGDMNA-OH), which “Inhibitory potency, comparison between peptides” value is on record?
**A.** Its value is “comparable with that of the Arg-Gly-Asp-Ser peptide”.
